Test results reported in PubChem BioAssay AID256 (DTP/NCI, 2004).
The list is a part of this screen's results and no random one: it is rich in T/C values a quarter to a half above the control, in often repeated tests (any T/C) and in doses without a T/C. Other doses and runs of a compound stand elsewhere. T/C: endpoint of the treated group in % of that of the vehicle group. Some doses have a count of surviving animals in place of a T/C: the source files T/C as zero there, which appears to mark a toxic dose or a test without result, not a measured value. Some survivor counts are full or nearly so, which does not show that the dose was tolerated: survival well below the control is almost never listed, so the zero probably covers shortened survival too. Survivors were counted at the toxicity check, usually on the fifth day, unless a day is given; later deaths do not show. Schedules are NCI's codes, read here as Q, the interval in days (D) or hours (H), X, the number of doses. Where survival is the endpoint, the PubChem record calls one and a half times the control and up active, and a quarter to a half above the control has no call in these data; cut-offs in other NCI protocols can differ. Some doses were run more than once; the results are listed from low to high. Some T/C values are followed by the survivors on the day toxicity was checked, most often the fifth; without a count, all were alive then.

Tested on: CD2F1 mice, L1210 leukemia ip, survival T/C
Assay: NCI In Vivo Anticancer Drug Screen. Data for tumor model L1210 Leukemia (intraperitoneal) in CD2F1 (CDF1) mice
Conditions: T/C endpoint: mean survival time, higher T/C = longer survival
How it was run: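 Ratio T/C, where T is the treated-group value and C the vehicle-dosed control value, from mice implanted with a transplantable tumor.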

**Q.** Which results are given for `CN=S(=O)(OCCCCCOS(=O)(=NC)c1ccc(C)cc1)c1ccc(C)cc1` (stereo not drawn)?
**A.** survivor count (dose: 12.5 mg/kg/injection, schedule: Q01DX009 (ip), vehicle: saline with Tween-80): 4 of 6; survivor count (dose: 25.0 mg/kg/injection, schedule: Q01DX009 (ip), vehicle: saline with Tween-80): 5 of 6; survivor count (dose: 50.0 mg/kg/injection, schedule: Q01DX009 (ip), vehicle: saline with Tween-80): 2 of 6; survivor count (dose: 100.0 mg/kg/injection, schedule: Q01DX009 (ip), vehicle: saline with Tween-80): 1 of 6; survivor count (dose: 200.0 mg/kg/injection, schedule: Q01DX009 (ip), vehicle: saline with Tween-80): 0 of 6; survivor count (dose: 400.0 mg/kg/injection, schedule: Q01DX009 (ip), vehicle: saline with Tween-80): 0 of 6

**Q.** Which results are given for `ClCc1ccc(Cl)c(Cl)c1Cl`?
**A.** survivor count (dose: 100.0 mg/kg/injection, schedule: Q04DX003 (ip), vehicle: saline with Tween-80): 6 of 6; survivor count (dose: 200.0 mg/kg/injection, schedule: Q04DX003 (ip), vehicle: saline with Tween-80): 3 of 6; survivor count (dose: 400.0 mg/kg/injection, schedule: Q04DX003 (ip), vehicle: saline with Tween-80): 0 of 6

**Q.** `N=c1ccn2c(n1)OC1C(OP(=O)(O)O)C(CO)OC12` (stereo not drawn) was tested. Which T/C (dose: 8.7 mg/kg/injection, schedule: Q03HX024 (oral), vehicle: water) did it give?
**A.** Its T/C is 132 % of control.

**Q.** And the T/C (dose: 11.6 mg/kg/injection, schedule: Q01DX009 (ip), vehicle: saline)?
**A.** Its T/C is 139 % of control.

**Q.** What about the T/C (dose: 16.0 mg/kg/injection, schedule: Q01DX009 (ip), vehicle: saline) of the same compound?
**A.** Its T/C is 138 % of control.

**Q.** And the T/C (dose: 16.0 mg/kg/injection, schedule: Q03HX008 (ip), vehicle: saline)?
**A.** The T/C was 127 % of control.

**Q.** And the T/C (dose: 16.0 mg/kg/injection, schedule: Q03HX024 (oral), vehicle: saline)?
**A.** Its T/C is 148 % of control.

**Q.** What about the T/C (dose: 32.0 mg/kg/injection, schedule: Q03HX008 (ip), vehicle: saline) of the same compound?
**A.** The T/C was 136 % of control.

**Q.** What about the T/C (dose: 32.0 mg/kg/injection, schedule: Q03HX008 (oral), vehicle: saline) of the same compound?
**A.** The T/C was 127 % of control.

**Q.** And the T/C (dose: 46.4 mg/kg/injection, schedule: Q01DX009 (oral), vehicle: water)?
**A.** Its T/C is 138 % of control.

**Q.** And the T/C (dose: 64.0 mg/kg/injection, schedule: Q01DX009 (oral), vehicle: saline)?
**A.** Its T/C is 131 % of control [9 of 10 alive].

**Q.** What about the T/C (dose: 64.0 mg/kg/injection, schedule: Q03HX008 (ip), vehicle: saline) of the same compound?
**A.** Its T/C is 148 % of control.

**Q.** What about the T/C (dose: 64.0 mg/kg/injection, schedule: Q03HX008 (oral), vehicle: saline) of the same compound?
**A.** The T/C was 147 % of control.

**Q.** And the T/C (dose: 256.0 mg/kg/injection, schedule: Q04DX003 (oral), vehicle: saline)?
**A.** The T/C was 135 % of control.

**Q.** What about the T/C (dose: 512.0 mg/kg/injection, schedule: Q01DX001 (ip), vehicle: saline) of the same compound?
**A.** The T/C was 141 % of control.

**Q.** What about the T/C (dose: 512.0 mg/kg/injection, schedule: Q01DX001 (oral), vehicle: saline) of the same compound?
**A.** The T/C was 131 % of control.

**Q.** What about the T/C (dose: 1024.0 mg/kg/injection, schedule: Q01DX001 (oral), vehicle: saline) of the same compound?
**A.** Its T/C is 147 % of control.

**Q.** Which results are given for `O=C(CBr)N1c2ccccc2Sc2ccc(C(F)(F)F)cc21`?
**A.** survivor count (dose: 25.0 mg/kg/injection, schedule: Q01DX009 (ip), vehicle: other): 3 of 6; survivor count (dose: 50.0 mg/kg/injection, schedule: Q01DX009 (ip), vehicle: other): 3 of 6; survivor count (dose: 100.0 mg/kg/injection, schedule: Q01DX009 (ip), vehicle: other): 0 of 6; survivor count (dose: 200.0 mg/kg/injection, schedule: Q01DX009 (ip), vehicle: other): 0 of 6

**Q.** Which T/C (dose: 0.05 mg/kg/injection, schedule: Q01DX009 (ip), vehicle: other) does the source give for `N=[N+]=CC(=O)CCC(NC(=O)C(CCC(=O)C=[N+]=N)NC(=O)CCC(N)C(=O)O)C(=O)O` (stereo not drawn) here?
**A.** Its T/C is 127 % of control.

**Q.** And the T/C (dose: 0.1 mg/kg/injection, schedule: Q01DX009 (ip), vehicle: other)?
**A.** The T/C was 137 and 140 % of control.

**Q.** What about the T/C (dose: 0.1 mg/kg/injection, schedule: Q01DX009 (ip), vehicle: water) of the same compound?
**A.** Its T/C is 134 % of control.

**Q.** And the T/C (dose: 0.1 mg/kg/injection, schedule: Q01DX009 (sc), vehicle: water)?
**A.** The T/C was 145 % of control.

**Q.** And the T/C (dose: 0.1 mg/kg/injection, schedule: Q01DX017 (ip), vehicle: saline, evaluated on day 5)?
**A.** The T/C was 145 % of control.

**Q.** What about the T/C (dose: 0.1 mg/kg/injection, schedule: Q01DX017 (ip), vehicle: saline, evaluated on day 22) of the same compound?
**A.** Its T/C is 145 % of control.

**Q.** And the T/C (dose: 0.2 mg/kg/injection, schedule: Q01DX009 (ip), vehicle: water)?
**A.** Its T/C is 134 % of control.

**Q.** What about the survivor count (dose: 0.8 mg/kg/injection, schedule: Q01DX009 (oral), vehicle: water) of the same compound?
**A.** Its survivor count is 10 of 10.

**Q.** And the survivor count (dose: 0.8 mg/kg/injection, schedule: Q01DX009 (sc), vehicle: water)?
**A.** Its survivor count is 9 of 10.

**Q.** What about the T/C (dose: 0.8 mg/kg/injection, schedule: Q03HX024 (ip), vehicle: water) of the same compound?
**A.** Its T/C is 130 % of control.

**Q.** What about the survivor count (dose: 1.0 mg/kg/injection, schedule: Q01DX009 (ip), vehicle: other) of the same compound?
**A.** The survivor count was 6 of 6.

**Q.** And the T/C (dose: 1.6 mg/kg/injection, schedule: Q03HX016 (ip), vehicle: water)?
**A.** The T/C was 138 % of control.

**Q.** What about the T/C (dose: 3.1 mg/kg/injection, schedule: Q03HX016 (ip), vehicle: water) of the same compound?
**A.** Its T/C is 127 % of control.

**Q.** What about the survivor count (dose: 6.25 mg/kg/injection, schedule: Q03HX008 (ip), vehicle: water) of the same compound?
**A.** Its survivor count is 4 of 10.

**Q.** And the survivor count (dose: 6.25 mg/kg/injection, schedule: Q03HX016 (ip), vehicle: water)?
**A.** The survivor count was 4 of 10.

**Q.** What about the survivor count (dose: 6.25 mg/kg/injection, schedule: Q03HX024 (ip), vehicle: water) of the same compound?
**A.** The survivor count was 6 of 10.

**Q.** What about the survivor count (dose: 12.5 mg/kg/injection, schedule: Q03HX008 (ip), vehicle: water) of the same compound?
**A.** Its survivor count is 3 of 10.

**Q.** What about the survivor count (dose: 12.5 mg/kg/injection, schedule: Q03HX016 (ip), vehicle: water) of the same compound?
**A.** Its survivor count is 4 of 10.

**Q.** And the survivor count (dose: 12.5 mg/kg/injection, schedule: Q03HX024 (ip), vehicle: water)?
**A.** The survivor count was 3 of 10.

**Q.** What about the T/C (dose: 12.5 mg/kg/injection, schedule: Q08DX002 (ip), vehicle: water) of the same compound?
**A.** Its T/C is 140 % of control.

**Q.** And the T/C (dose: 25.0 mg/kg/injection, schedule: Q01DX001 (ip), vehicle: water)?
**A.** Its T/C is 142 % of control.

**Q.** And the T/C (dose: 25.0 mg/kg/injection, schedule: Q01DX001 (oral), vehicle: water)?
**A.** Its T/C is 128 % of control.

**Q.** And the T/C (dose: 25.0 mg/kg/injection, schedule: Q01DX001 (sc), vehicle: water)?
**A.** Its T/C is 141 % of control.

**Q.** What about the survivor count (dose: 25.0 mg/kg/injection, schedule: Q03HX008 (ip), vehicle: water) of the same compound?
**A.** Its survivor count is 1 of 10.

**Q.** And the survivor count (dose: 25.0 mg/kg/injection, schedule: Q03HX016 (ip), vehicle: water)?
**A.** Its survivor count is 2 of 10.

**Q.** And the T/C (dose: 50.0 mg/kg/injection, schedule: Q01DX001 (ip), vehicle: water)?
**A.** Its T/C is 136 % of control.

**Q.** What about the T/C (dose: 50.0 mg/kg/injection, schedule: Q01DX001 (oral), vehicle: water) of the same compound?
**A.** Its T/C is 132 % of control.

**Q.** And the T/C (dose: 50.0 mg/kg/injection, schedule: Q01DX001 (sc), vehicle: water)?
**A.** Its T/C is 144 % of control [9 of 10 alive].

**Q.** What about the survivor count (dose: 50.0 mg/kg/injection, schedule: Q03HX008 (ip), vehicle: water) of the same compound?
**A.** Its survivor count is 1 of 10.

**Q.** What about the T/C (dose: 50.0 mg/kg/injection, schedule: Q04DX003 (ip), vehicle: water) of the same compound?
**A.** Its T/C is 149 % of control.

**Q.** And the T/C (dose: 100.0 mg/kg/injection, schedule: Q01DX001 (ip), vehicle: water)?
**A.** The T/C was 137 % of control [9 of 10 alive].

**Q.** And the survivor count (dose: 200.0 mg/kg/injection, schedule: Q01DX001 (sc), vehicle: water)?
**A.** Its survivor count is 9 of 10.

**Q.** And the T/C (dose: 200.0 mg/kg/injection, schedule: Q08DX002 (ip), vehicle: water)?
**A.** The T/C was 140 % of control [8 of 10 alive].

**Q.** What about the survivor count (dose: 400.0 mg/kg/injection, schedule: Q01DX001 (oral), vehicle: water) of the same compound?
**A.** Its survivor count is 5 of 10.

**Q.** What about the survivor count (dose: 400.0 mg/kg/injection, schedule: Q01DX001 (sc), vehicle: water) of the same compound?
**A.** The survivor count was 4 of 10.
